The assay concerns Escherichia coli BW25113. Nature of the assay: plate-normalized OD600 growth (mean of duplicates) (OD600 (normalized)); higher = more growth (less inhibition). The settings on record: 10 µM. Here is the method: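 E. coli BW25113 in LB (100 µl, 96-well, no shaking) was exposed to 10 µM of each compound (here the ChemBridge subset of a ~30,000-member library) and grown at 37°C for 24 h or 15°C for 48 h, in duplicate. Growth was read as OD600 and the duplicate ODs were normalized across screening plates to correct plate-to-plate variation.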

The structures appear in SMILES notation. The full ranking holds about 1,600 compounds; the median of “plate-normalized OD600 growth (mean of duplicates)” is about 0.31, and the lowest 2% start at about 0.23. The list shows a part of the results.

Turning to `C=CCNc1nc(-c2ccncc2)cs1`, the “plate-normalized OD600 growth” value is, setting by setting: (temperature: 15°C, 48 h) 0.236; (temperature: 37°C, 24 h) 0.589.
For `CS(=O)(=O)N(Cc1ccc(C(=O)Nc2cccnc2)cc1)c1ccccc1`, in that order: 0.264 and 0.621.
The matching figures for `Cc1ccc(-c2cc3c(nn2)-c2ccccc2C3=O)cc1`: 0.25 and 0.641.
Take `N#Cc1cc(Cc2ccc(N)c(C#N)c2)ccc1N`: the “plate-normalized OD600 growth” value is, setting by setting: (temperature: 15°C, 48 h) 0.251; (temperature: 37°C, 24 h) 0.591.
As to `CCN(CC)C(=O)C1CCCN(C/C=C/c2ccccc2)C1` (stereo not given), the “plate-normalized OD600 growth” value was 0.24 (temperature: 15°C, 48 h) and 0.611 (temperature: 37°C, 24 h).
Consider `COc1ccc(N2C(=O)CC(Nc3ccc(N4CCCCC4)cc3)C2=O)cc1` (stereo not given), for which the “plate-normalized OD600 growth” value worked out at 0.25 (temperature: 15°C, 48 h) and 0.62 (temperature: 37°C, 24 h).
On to `CCN(CC)S(=O)(=O)c1cccc(C(=O)Nc2ccc(OC)cc2)c1`, for which the “plate-normalized OD600 growth” value amounted to 0.245 (temperature: 15°C, 48 h) and 0.644 (temperature: 37°C, 24 h).
For `c1ccc(CCN2CCN(c3ccccc3)CC2)cc1`, in that order: 0.227 and 0.62.
For `O=C(O)CSc1cccc(C(=O)Nc2ccc(Br)cc2)c1`, in that order: 0.249 and 0.611.
As to `Cc1[nH]nc2c1C1(CCCCC1)C(C#N)=C(N)O2`, the “plate-normalized OD600 growth” value is, setting by setting: (temperature: 15°C, 48 h) 0.258; (temperature: 37°C, 24 h) 0.629.
For `COc1ccc(Cl)cc1NC(=O)c1ccccc1Br`, in that order: 0.222 and 0.627.
The matching figures for `Cc1ccccc1C(=O)N1CCCCC1CO` (stereo not given): 0.294 and 0.624.
Turning to `O=C(O)CCC(=O)Nc1ccc(-c2nc3ccccc3[nH]2)cc1`, the “plate-normalized OD600 growth” value came out at 0.247 (temperature: 15°C, 48 h) and 0.602 (temperature: 37°C, 24 h).
For `CC(=O)N(C)c1ccc(NC(=O)c2ccc(-c3ccccc3)cc2)cc1`, in that order: 0.26 and 0.63.
As for `COc1ccc(N(C(=O)c2ccc(F)cc2)C2=CC3CCC(C2)N3C)cc1` (stereo not given), the “plate-normalized OD600 growth” value is 0.247 (temperature: 15°C, 48 h) and 0.619 (temperature: 37°C, 24 h).
For `COCc1cc(=O)n2[nH]c(C)c(-c3ccc(OC)cc3)c2n1`, in that order: 0.252 and 0.612.
For `COc1cccc(OC)c1C(=O)NCC#N`, in that order: 0.29 and 0.648.
The matching figures for `Cc1ccc(OCCCCN2CCCCC2)cc1`: 0.264 and 0.635.
`Cc1ccc(-c2csc(/C(C#N)=C/c3cccnc3)n2)c(C)c1`: the “plate-normalized OD600 growth” value reads like this: (temperature: 15°C, 48 h) 0.25; (temperature: 37°C, 24 h) 0.657.
For the compound `CCN(CC)C(=O)C1CCCN(Cc2cccc([N+](=O)[O-])c2)C1` (stereo not given), the “plate-normalized OD600 growth” value came out at 0.249 (temperature: 15°C, 48 h) and 0.606 (temperature: 37°C, 24 h).
With `N#CC1=C(N)Oc2cc(O)ccc2C1c1cccc([N+](=O)[O-])c1` (stereo not given), the “plate-normalized OD600 growth” value is, setting by setting: (temperature: 15°C, 48 h) 0.251; (temperature: 37°C, 24 h) 0.596.
`Cc1ccc(C(=O)c2ccccc2C(=O)O)c(O)c1`: the “plate-normalized OD600 growth” value was determined as 0.244 (temperature: 15°C, 48 h) and 0.614 (temperature: 37°C, 24 h).
In the case of `N#CC1=C(N)Oc2cc(N)ccc2C1c1ccc(Br)s1` (stereo not given), the “plate-normalized OD600 growth” value was 0.262 (temperature: 15°C, 48 h) and 0.636 (temperature: 37°C, 24 h).
For `OC(CC#CCN1CCCC1)(c1ccccc1)c1ccccc1`, in that order: 0.253 and 0.615.
Turning to `O=C(c1ccc([N+](=O)[O-])o1)N1CCN(c2cccc(Cl)c2)CC1`, the “plate-normalized OD600 growth” value (temperature: 15°C, 48 h) is 0.212 and the “plate-normalized OD600 growth” value (temperature: 37°C, 24 h) was 0.611.
For `CSc1nc2sc3c(c2c(=O)n1C)CCCC3`, in that order: 0.246 and 0.618.
The matching figures for `Cc1ccc(N2C(=O)CC(N3CCN(c4ccccn4)CC3)C2=O)cc1Cl` (stereo not given): 0.236 and 0.637.
On to `Cc1nc2c(-c3ccccc3)c(Cc3ccccc3)[nH]n2c(=O)c1Cl`, for which the “plate-normalized OD600 growth” value (temperature: 15°C, 48 h) was found to be 0.257 and the “plate-normalized OD600 growth” value (temperature: 37°C, 24 h) was 0.612.
As to `O=C(c1ccco1)N1CCN(c2ccc([N+](=O)[O-])cc2)CC1`, the “plate-normalized OD600 growth” value (temperature: 15°C, 48 h) came to 0.244 and the “plate-normalized OD600 growth” value (temperature: 37°C, 24 h) was 0.617.
Take `CN1CCCN(Cc2cc(F)ccc2F)CC1`: the “plate-normalized OD600 growth” value runs as follows: (temperature: 15°C, 48 h) 0.273; (temperature: 37°C, 24 h) 0.623.
The matching figures for `CCC(C)(O)C#CCN1CCCCC1` (stereo not given): 0.242 and 0.628.
For `O=S1(=O)CCC(N2CCOCC2)C1` (stereo not given), in that order: 0.267 and 0.612.
For `CC(Oc1cccc2cccnc12)C(=O)NN` (stereo not given), in that order: 0.254 and 0.628.
For `COc1ccc(NCc2ccncc2)cc1`, the “plate-normalized OD600 growth” value is 0.253 (temperature: 15°C, 48 h) and 0.629 (temperature: 37°C, 24 h).
Consider `CC(=O)Nc1ccc(S(=O)(=O)N2CCN(Cc3ccc(F)cc3)CC2)cc1`, for which the “plate-normalized OD600 growth” value by setting is: (temperature: 15°C, 48 h) 0.236; (temperature: 37°C, 24 h) 0.606.

Source of the values: the supplement of paper PMC4371806.
